From patent US20060008801A1 (EFFECTOR CELL INSTITUTE, published 2006)
These are yes or no findings as the source states them, for the method shown. Some entries that bind do so weakly or less than the wild type. Where a sequence is shown, tags or fusion partners need not be part of it.

By UniProt entry, the sequences of proteins in these tests, tags left out.
UniProt P51681: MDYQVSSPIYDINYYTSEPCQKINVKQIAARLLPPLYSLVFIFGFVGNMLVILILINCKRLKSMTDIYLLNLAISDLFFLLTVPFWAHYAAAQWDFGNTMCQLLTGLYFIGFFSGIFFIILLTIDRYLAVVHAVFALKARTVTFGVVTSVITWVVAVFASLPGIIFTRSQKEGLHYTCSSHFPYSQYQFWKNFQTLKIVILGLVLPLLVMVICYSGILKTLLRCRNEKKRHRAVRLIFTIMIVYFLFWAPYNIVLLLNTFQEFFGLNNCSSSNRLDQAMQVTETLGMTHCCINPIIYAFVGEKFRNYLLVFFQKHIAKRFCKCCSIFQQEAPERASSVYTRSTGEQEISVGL

Biological target: CCR5 expressed in pEGFP-FROUNT transformed HEK293 cells (UniProt P51681)
Experiment: fluorescence microscopy of HEK cells (colocalization)

B1: green fluorescent protein-fused FROUNT protein 1 (pEGFP-FROUNT), expressed in HEK293 cells (protein, not shown: large carriers)
chain: MYFDWGPGEMLVCETSFNKKEKSEMVPSCPFIYIIRKDVDVYSQILRKLFNESHGIFLGLQRIDEELTGKSRKSQLVRVSKNYRSVIRACMEEMHQVAIAAKDPANGRQFSSQVSILSAMELIWNLCEILFIEVAPAGPLLLHLLDWVRLHVCEVDSLSADVLGSENPSKHDSFWNLVTILVLQGRLDEARQMLSKEADASPASAGICRIMGDLMRTMPILSPGNTQTLTELELKWQHWHEECERYLQDSTFATSPHLESLLKIMLGDEAALLEQKELLSNWYHFLVTRLLYSNPTVKPIDLHYYAQSSLDLFLGGESSPEPLDNILLAAFEFDIHQVIKECSIALSNWWFVAHLTDLLDHCKLLQSHNLYFGSNMREFLLLEYASGLFAHPSLWQLGVDYFDYCPELGRVSLELHIERIPLNTEQKALKVLRICEQRQMTEQVRSICKILAMKAVRNNRLGSALSWSIRAKDAAFATLVSDRFLRDYCERGCFSDLDLIDNLGPAMMLSDRLTFLGKYREFHRMYGEKRFADAASLLLSLMTSRIAPRSFWMTLLTDALPLLEQKQVIFSAEQTYELMRCLEDLTSRRPVHGESDTEQLQDDDIETTKVEMLRLSLARNLARAIIREGSLEGS
For B1, the binding was “binds”.
